Test results from publication doi:10.1101/2020.07.30.230052 (bioRxiv, 2020).
Results are given in words; binding and its absence hold for the method and conditions named. In cells and extracts the contact can be indirect. Some results given as binding are weak or reduced against the parent protein; the word gives no strength. Each block holds one binder with its values, some of them ahead of it.

By UniProt entry, the sequences of proteins in these tests, tags left out. Residues count along the entry.
UniProt P24228, residues 21-477: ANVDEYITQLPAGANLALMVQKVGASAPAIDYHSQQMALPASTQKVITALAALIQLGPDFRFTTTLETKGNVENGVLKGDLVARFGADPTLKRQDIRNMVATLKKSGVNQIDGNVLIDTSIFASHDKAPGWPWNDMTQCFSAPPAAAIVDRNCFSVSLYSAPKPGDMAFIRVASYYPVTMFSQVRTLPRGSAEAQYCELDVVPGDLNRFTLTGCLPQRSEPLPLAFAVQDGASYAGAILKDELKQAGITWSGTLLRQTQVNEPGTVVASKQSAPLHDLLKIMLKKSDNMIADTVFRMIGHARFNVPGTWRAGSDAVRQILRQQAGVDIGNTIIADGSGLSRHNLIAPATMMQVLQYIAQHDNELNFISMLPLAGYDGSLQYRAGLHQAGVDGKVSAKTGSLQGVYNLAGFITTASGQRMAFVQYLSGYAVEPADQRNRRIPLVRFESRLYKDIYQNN

Molecular target: PBP4, endogenous in E. coli BW25113 cells (Escherichia coli (endogenous in BW25113)) (UniProt P24228)
Assay: cross-linking + co-IP

binding: binds
B1: LpoA, endogenous in E. coli BW25113 cells (protein, UniProt P45464 27-678)
chain: CGTHTPDQSTAYMQGTAQADSAFYLQQMQQSSDDTRINWQLLAIRALVKEGKTGQAVELFNQLPQELNDAQRREKTLLAVEIKLAQKDFAGAQNLLAKITPADLEQNQQARYWQAKIDASQGRPSIDLLRALIAQEPLLGAKEKQQNIDATWQALSSMTQEQANTLVINADENILQGWLDLQRVWFDNRNDPDMMKAGIADWQKRYPNNPGAKMLPTQLVNVKAFKPASTNKIALLLPLNGQAAVFGRTIQQGFEAAKNIGTQPVAAQVAAAPAADVAEQPQPQTVDGVASPAQASVSDLTGEQPAAQPVPVSAPATSTAAVSAPANPSAELKIYDTSSQPLSQILSQVQQDGASIVVGPLLKNNVEELLKSNTPLNVLALNQPENIENRVNICYFALSPEDEARDAARHIRDQGKQAPLVLIPRSSLGDRVANAFAQEWQKLGGGTVLQQKFGSTSELRAGVNGGSGIALTGSPITLRATTDSGMTTNNPTLQTTPTDDQFTNNGGRVDAVYIVATPGEIAFIKPMIAMRNGSQSGATLYASSRSAQGTAGPDFRLEMEGLQYSEIPMLAGGNLPLMQQALSAVNNDYSLARMYAMGVDAWSLANHFSQMRQVQGFEINGNTGSLTANPDCVINRNLSWLQYQQGQVVPVS

binding: binds
B2: PBP1A, endogenous in E. coli BW25113 cells (enzyme, UniProt P02918 1-850)
chain: MKFVKYFLILAVCCILLGAGSIYGLYRYIEPQLPDVATLKDVRLQIPMQIYSADGELIAQYGEKRRIPVTLDQIPPEMVKAFIATEDSRFYEHHGVDPVGIFRAASVALFSGHASQGASTITQQLARNFFLSPERTLMRKIKEVFLAIRIEQLLTKDEILELYLNKIYLGYRAYGVGAAAQVYFGKTVDQLTLNEMAVIAGLPKAPSTFNPLYSMDRAVARRNVVLSRMLDEGYITQQQFDQTRTEAINANYHAPEIAFSAPYLSEMVRQEMYNRYGESAYEDGYRIYTTITRKVQQAAQQAVRNNVLDYDMRHGYRGPANVLWKVGESAWDNNKITDTLKALPTYGPLLPAAVTSANPQQATAMLADGSTVALSMEGVRWARPYRSDTQQGPTPRKVTDVLQTGQQIWVRQVGDAWWLAQVPEVNSALVSINPQNGAVMALVGGFDFNQSKFNRATQALRQVGSNIKPFLYTAAMDKGLTLASMLNDVPISRWDASAGSDWQPKNSPPQYAGPIRLRQGLGQSKNVVMVRAMRAMGVDYAAEYLQRFGFPAQNIVHTESLALGSASFTPMQVARGYAVMANGGFLVDPWFISKIENDQGGVIFEAKPKVACPECDIPVIYGDTQKSNVLENNDVEDVAISREQQNVSVPMPQLEQANQALVAKTGAQEYAPHVINTPLAFLIKSALNTNIFGEPGWQGTGWRAGRDLQRRDIGGKTGTTNSSKDAWFSGYGPGVVTSVWIGFDDHRRNLGHTTASGAIKDQISGYEGGAKSAQPAWDAYMKAVLEGVPEQPLTPPPGIVTVNIDRSTGQLANGGNSREEYFIEGTQPTQQAVHEVGTTIIDNGEAQELF
